Results from the supplement of paper PMC12067093, “Discovery and optimisation of a covalent ligand for TRIM25 and its application to targeted protein ubiquitination” (Chemical Science, 2025).
The list shows a part of the results.

Protein sequences, listed by entry. Tags and fused reporters are not part of them. Lines headed by an entry give the natural chain unless they say otherwise; changes in a name come on top.
UniProt P19793: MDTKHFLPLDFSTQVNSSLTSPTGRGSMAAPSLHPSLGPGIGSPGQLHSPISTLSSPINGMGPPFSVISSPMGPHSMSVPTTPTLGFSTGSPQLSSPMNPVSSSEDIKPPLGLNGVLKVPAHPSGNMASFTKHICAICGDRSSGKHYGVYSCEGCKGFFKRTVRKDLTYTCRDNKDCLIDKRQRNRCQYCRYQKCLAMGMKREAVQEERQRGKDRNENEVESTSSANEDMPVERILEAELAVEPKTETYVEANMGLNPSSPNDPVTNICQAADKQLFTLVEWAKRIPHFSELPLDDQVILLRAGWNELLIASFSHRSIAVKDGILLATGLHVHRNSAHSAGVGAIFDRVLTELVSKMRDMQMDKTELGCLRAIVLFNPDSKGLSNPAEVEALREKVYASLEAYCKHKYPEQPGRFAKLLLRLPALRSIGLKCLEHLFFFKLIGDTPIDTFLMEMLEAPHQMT
UniProt Q9H714: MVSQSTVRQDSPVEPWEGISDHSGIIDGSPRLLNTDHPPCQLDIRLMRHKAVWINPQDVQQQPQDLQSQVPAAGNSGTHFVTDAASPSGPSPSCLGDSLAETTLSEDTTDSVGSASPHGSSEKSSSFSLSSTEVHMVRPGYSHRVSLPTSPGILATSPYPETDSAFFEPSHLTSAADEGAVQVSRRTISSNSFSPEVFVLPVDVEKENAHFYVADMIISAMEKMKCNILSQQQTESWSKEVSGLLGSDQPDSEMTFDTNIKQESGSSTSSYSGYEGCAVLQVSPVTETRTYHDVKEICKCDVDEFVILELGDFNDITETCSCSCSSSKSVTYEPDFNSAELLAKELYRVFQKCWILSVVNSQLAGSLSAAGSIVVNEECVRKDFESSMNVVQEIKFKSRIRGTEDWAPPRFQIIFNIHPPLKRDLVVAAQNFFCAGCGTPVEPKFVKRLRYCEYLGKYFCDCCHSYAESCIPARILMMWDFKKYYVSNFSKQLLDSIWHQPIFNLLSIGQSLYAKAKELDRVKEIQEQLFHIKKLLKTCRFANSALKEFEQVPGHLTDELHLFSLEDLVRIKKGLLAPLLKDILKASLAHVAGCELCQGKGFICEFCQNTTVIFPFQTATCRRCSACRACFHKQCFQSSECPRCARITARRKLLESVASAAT
UniProt Q9NZJ4: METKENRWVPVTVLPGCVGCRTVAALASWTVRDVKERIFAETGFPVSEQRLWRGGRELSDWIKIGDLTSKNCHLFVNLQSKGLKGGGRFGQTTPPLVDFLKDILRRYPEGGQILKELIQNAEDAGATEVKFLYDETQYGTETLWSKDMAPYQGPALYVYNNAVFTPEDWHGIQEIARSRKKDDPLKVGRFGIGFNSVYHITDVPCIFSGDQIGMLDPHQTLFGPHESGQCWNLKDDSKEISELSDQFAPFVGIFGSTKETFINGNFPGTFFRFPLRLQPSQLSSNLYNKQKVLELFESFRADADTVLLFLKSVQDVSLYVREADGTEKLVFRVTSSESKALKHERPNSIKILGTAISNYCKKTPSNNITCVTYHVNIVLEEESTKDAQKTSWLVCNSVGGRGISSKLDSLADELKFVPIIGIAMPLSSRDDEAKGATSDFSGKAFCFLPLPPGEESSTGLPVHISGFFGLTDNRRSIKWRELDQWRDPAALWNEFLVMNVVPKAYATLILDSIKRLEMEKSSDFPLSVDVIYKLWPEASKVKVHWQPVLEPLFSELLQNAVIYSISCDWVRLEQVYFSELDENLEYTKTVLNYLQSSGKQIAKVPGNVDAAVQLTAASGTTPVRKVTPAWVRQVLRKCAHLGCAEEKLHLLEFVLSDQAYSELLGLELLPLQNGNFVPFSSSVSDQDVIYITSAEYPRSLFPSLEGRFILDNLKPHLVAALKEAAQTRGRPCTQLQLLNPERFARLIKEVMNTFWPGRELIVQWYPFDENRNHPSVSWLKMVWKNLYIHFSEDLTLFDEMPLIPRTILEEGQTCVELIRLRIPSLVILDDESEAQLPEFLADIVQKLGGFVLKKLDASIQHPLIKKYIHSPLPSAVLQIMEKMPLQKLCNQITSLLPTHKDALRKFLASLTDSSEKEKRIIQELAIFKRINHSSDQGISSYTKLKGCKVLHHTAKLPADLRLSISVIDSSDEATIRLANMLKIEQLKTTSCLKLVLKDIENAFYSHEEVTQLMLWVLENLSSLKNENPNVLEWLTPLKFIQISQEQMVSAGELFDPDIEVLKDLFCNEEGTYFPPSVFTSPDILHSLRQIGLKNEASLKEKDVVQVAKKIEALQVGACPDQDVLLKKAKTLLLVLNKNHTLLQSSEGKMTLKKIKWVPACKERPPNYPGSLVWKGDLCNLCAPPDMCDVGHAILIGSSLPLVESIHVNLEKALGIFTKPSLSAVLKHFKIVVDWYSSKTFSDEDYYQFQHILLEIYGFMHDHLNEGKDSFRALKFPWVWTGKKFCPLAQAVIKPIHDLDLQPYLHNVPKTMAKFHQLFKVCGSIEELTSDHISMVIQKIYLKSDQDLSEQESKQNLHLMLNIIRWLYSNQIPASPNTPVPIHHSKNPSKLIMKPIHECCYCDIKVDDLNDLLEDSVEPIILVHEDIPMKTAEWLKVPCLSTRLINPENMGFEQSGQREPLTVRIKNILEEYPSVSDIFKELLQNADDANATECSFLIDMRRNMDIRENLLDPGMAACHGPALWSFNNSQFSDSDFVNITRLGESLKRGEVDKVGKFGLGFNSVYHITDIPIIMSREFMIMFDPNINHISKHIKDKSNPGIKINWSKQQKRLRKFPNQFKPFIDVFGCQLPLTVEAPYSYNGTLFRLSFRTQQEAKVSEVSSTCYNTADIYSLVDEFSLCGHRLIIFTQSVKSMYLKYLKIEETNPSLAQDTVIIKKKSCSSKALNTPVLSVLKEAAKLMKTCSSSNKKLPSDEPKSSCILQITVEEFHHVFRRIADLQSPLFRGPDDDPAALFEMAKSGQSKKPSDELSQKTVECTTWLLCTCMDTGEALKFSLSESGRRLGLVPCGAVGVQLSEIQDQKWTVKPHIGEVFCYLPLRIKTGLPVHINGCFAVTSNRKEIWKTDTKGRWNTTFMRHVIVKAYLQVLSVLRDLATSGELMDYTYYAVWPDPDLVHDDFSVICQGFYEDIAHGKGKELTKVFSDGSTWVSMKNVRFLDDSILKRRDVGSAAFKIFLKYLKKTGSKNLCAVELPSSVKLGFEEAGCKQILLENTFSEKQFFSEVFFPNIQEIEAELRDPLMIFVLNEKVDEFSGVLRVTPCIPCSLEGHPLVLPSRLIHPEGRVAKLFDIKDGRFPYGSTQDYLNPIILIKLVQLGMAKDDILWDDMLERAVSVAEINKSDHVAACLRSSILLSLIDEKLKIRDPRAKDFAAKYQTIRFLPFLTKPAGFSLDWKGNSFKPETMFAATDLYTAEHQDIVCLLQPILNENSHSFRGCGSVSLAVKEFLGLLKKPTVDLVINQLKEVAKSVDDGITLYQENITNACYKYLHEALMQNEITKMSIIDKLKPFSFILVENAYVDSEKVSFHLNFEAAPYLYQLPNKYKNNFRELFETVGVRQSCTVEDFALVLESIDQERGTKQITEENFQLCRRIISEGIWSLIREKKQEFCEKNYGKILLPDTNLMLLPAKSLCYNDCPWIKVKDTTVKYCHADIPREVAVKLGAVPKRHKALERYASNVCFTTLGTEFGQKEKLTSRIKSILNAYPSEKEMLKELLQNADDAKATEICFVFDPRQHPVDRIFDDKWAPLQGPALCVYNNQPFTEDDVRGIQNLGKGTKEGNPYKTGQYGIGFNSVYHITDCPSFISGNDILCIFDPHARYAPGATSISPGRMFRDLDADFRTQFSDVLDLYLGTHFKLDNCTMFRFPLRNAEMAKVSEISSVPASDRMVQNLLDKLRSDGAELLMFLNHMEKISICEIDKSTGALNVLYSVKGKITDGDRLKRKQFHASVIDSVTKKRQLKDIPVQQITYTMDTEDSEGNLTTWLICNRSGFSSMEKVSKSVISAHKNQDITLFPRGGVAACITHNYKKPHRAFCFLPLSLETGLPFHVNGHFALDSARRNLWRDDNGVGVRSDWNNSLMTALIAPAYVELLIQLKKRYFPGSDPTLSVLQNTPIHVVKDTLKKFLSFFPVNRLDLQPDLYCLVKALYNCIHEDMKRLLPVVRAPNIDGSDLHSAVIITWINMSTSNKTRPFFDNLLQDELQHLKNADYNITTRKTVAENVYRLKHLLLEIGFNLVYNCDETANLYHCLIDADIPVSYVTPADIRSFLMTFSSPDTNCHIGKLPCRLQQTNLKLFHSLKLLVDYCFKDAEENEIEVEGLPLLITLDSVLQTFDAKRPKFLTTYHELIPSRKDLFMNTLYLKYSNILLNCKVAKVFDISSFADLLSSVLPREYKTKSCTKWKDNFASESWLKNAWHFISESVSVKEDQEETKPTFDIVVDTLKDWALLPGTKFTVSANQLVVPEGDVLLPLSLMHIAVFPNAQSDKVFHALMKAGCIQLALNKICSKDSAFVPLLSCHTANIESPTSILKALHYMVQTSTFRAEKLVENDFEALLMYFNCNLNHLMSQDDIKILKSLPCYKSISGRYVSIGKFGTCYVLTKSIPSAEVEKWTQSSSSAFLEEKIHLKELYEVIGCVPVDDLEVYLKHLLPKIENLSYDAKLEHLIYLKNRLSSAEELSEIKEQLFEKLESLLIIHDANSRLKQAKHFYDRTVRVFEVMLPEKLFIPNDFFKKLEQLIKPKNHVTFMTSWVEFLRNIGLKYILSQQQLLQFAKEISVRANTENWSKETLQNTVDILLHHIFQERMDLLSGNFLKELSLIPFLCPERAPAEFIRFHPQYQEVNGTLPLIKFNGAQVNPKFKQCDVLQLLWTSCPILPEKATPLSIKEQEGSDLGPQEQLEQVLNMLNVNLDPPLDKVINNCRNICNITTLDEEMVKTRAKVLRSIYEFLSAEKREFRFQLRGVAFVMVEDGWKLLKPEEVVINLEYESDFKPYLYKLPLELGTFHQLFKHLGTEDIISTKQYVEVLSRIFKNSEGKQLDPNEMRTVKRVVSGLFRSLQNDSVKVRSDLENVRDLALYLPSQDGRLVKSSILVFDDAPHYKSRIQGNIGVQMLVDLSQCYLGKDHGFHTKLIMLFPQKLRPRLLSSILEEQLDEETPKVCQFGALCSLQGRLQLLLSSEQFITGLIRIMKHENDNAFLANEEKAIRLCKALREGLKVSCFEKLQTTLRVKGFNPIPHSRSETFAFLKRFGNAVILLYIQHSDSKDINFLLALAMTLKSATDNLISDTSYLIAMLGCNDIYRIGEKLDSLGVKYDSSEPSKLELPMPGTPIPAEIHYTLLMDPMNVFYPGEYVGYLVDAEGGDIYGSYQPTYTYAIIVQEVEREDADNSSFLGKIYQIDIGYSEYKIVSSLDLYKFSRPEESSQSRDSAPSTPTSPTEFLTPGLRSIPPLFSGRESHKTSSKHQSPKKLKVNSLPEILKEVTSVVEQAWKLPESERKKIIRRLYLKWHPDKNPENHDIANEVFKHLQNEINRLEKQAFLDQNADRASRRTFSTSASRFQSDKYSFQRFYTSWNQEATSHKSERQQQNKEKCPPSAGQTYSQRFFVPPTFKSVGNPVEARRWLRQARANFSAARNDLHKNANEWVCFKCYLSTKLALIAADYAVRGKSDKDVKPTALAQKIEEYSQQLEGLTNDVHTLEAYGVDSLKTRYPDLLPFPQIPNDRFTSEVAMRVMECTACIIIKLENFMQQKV
UniProt Q14684: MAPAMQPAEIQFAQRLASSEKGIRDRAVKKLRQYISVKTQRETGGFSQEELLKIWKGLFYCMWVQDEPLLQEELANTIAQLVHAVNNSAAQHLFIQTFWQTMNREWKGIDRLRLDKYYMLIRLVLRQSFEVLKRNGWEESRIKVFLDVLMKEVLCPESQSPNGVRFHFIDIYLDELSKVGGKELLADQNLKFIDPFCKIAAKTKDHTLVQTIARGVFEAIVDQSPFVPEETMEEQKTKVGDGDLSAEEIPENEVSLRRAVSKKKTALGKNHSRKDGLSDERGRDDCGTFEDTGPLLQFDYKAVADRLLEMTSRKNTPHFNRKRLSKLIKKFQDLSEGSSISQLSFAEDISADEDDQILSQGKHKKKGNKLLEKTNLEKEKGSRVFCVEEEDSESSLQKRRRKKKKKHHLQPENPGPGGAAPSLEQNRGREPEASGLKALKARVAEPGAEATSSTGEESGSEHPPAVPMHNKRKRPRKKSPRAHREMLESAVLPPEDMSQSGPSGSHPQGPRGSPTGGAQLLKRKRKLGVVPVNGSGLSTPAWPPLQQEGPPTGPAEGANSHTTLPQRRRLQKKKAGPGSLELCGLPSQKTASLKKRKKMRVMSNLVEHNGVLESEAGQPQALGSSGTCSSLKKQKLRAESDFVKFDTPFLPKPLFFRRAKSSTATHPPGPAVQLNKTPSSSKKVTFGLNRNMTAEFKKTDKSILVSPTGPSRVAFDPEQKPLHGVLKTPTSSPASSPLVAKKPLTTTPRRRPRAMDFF

Compound: CC1Cc2ccccc2N1C(=O)C1CCCN(C1)C(=O)CCl (mixture of isomers) [TRIM25 ligand 11 (diastereomer mixture)]
Assay: probe-labelled cysteine peptide fold change vs DMSO (competition) (log2 fold change); higher = less target engagement (more negative = stronger competition)
Conditions: THP-1, incubation time: 4 h
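Also: competitive chemoproteomic profiling in live THP-1 cells with an iodoacetamide desthiobiotin (IA-DTB) probe, comparing probe-labelled peptide intensities in compound-treated cells against DMSO-treated controls.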

Target	probe-labelled cysteine peptide fold change (10 µM)	probe-labelled cysteine peptide fold change (50 µM)
RPS2_P15880_182_PHTVPCK (UniProt P15880)	-0.0226	0.0166
RXRB_P28702_247_DCTVDKR (UniProt P28702)	-0.122	-0.1
RPS5_P46782_66_AQCPIVER (UniProt P46782)	-0.0708	-0.0594
RPTOR_Q8N122_617_CAAVFALGTFVGNSAER (UniProt Q8N122)	-0.0784	0.0812
RPRD2_Q5VT52_88_LNLFYLANDVIQNCK (UniProt Q5VT52)	-0.0422	0.0619
RPS27A_P62979_121_RECPSDECGAGVFMASHFDR (UniProt P62979)	0.0261	-0.0993
RRM2B_Q7LG56_232+236_DEGLHCDFACLMFQYLVNKPSEER (UniProt Q7LG56)	0.0232	-0.115
SAFB2_Q14151_464_CISHLHR (UniProt Q14151)	-0.0285	0.0681
RRP8_O43159_317_QRPASLVVADFGCGDCR (UniProt O43159)	-0.0294	0.0874
RPS8_P62241_182_LLACIASRPGQCGR (UniProt P62241)	-0.25	-0.369
RPS6KA1_Q15418-4_17_DLVPCPR (UniProt Q15418)	-0.0198	-0.135
RUFY1_Q96T51_155_SLDADHAPLQQFFVVMEHCLK (UniProt Q96T51)	-0.0741	-0.162
RREB1_Q92766_1514_KVCSVCNK (UniProt Q92766)	0.0224	-0.0446
SAMHD1_Q9Y3Z3_15_CDDSPR (UniProt Q9Y3Z3)	-0.104	-0.119
RRP9_O43818_460_NSVCIIPLR (UniProt O43818)	-0.351	0.077
SAMD9L_Q8IVG5_664_KKEDVLTALEILCENECTETDIEK (UniProt Q8IVG5)	0.0784	-0.0645
RSF1_Q96T23_1436_VTDLVDYVCNSEQL (UniProt Q96T23)	-0.41	0.00596
RPUSD3_Q6P087_345_TLQCLGLR (UniProt Q6P087)	-0.162	-0.11
RREB1_Q92766_805_NCIHHILK (UniProt Q92766)	-0.119	-0.043
RRP8_O43159_332_NPVHCFDLASLDPR (UniProt O43159)	0.204	0.0527
SACM1L_Q9NTJ5_23_FYVEACDDGADDVLTIDR (UniProt Q9NTJ5)	-0.172	-0.192
RUVBL1_Q9Y265_49_EACGVIVELIK (UniProt Q9Y265)	-0.0508	-0.0596

Some of the entries so far, in markdown.

| Target | probe-labelled cysteine peptide fold change (10 µM) | probe-labelled cysteine peptide fold change (50 µM) |
| --- | --- | --- |
| RUFY1_Q96T51_155_SLDADHAPLQQFFVVMEHCLK (UniProt Q96T51) | -0.0741 | -0.162 |
| RREB1_Q92766_1514_KVCSVCNK (UniProt Q92766) | 0.0224 | -0.0446 |

Next records:

Target	probe-labelled cysteine peptide fold change (10 µM)	probe-labelled cysteine peptide fold change (50 µM)
RSL1D1_O76021_96_SDSEDICLFTK (UniProt O76021)	-0.0174	-0.141
RPUSD2_Q8IZ73_246_LLAENEDVVVVDKPSSIPVHPCGR (UniProt Q8IZ73)	-0.089	-0.225
RPS29_P62273_39_KYGLNMCR (UniProt P62273)	-0.16	-0.114
RRAGA_Q7L523_157+159_LSRPLECACFR (UniProt Q7L523)	0.149	0.397
RPUSD2_Q8IZ73_499+502_AVETDVMNQETDPLCAECR (UniProt Q8IZ73)	-0.226	-0.093
RPS8_P62241_174+182_LLACIASRPGQCGR (UniProt P62241)	-0.303	-0.555
RPS12_P25398_56_RQAHLCVLASNCDEPMYVK (UniProt P25398)	0.0283	-0.228
RXRA_P19793_369_TELGCLR (UniProt P19793)	-0.0466	0.0759
RRP7A_Q9Y3A4_8_CAARDPEDR (UniProt Q9Y3A4)	-0.00933	-0.0648
RRM1_P23921_492_IIDINYYPVPEACLSNKR (UniProt P23921)	-0.14	-0.205
SAE1_Q9UBE0_134_VDTEDIEKKPESFFTQFDAVCLTCCSR (UniProt Q9UBE0)	-0.502	-0.0309
RPS6_P62753_83_GHSCYR (UniProt P62753)	0.163	0.221
RPS17_P08708_35_VCEEIAIIPSKK (UniProt P08708)	-0.257	-0.162
RRP12_Q5JTH9_102_SSGTFLSGLSDCTNVTFSK (UniProt Q5JTH9)	0.0888	0.0733
RUSC1_Q9BVN2_532_LSPDVGHLVLTTLCPALHALVADGLK (UniProt Q9BVN2)	-0.131	-0.173
RPS17_P08708_35_RVCEEIAIIPSK (UniProt P08708)	-0.145	-0.0785
RSF1_Q96T23_562_TALSSTESCTMKGEEK (UniProt Q96T23)	-0.216	-0.493
RRP8_O43159_317+320_QRPASLVVADFGCGDCR (UniProt O43159)	0.0551	-0.202
RTF1_Q92541_599_RQCKPTIVSNSR (UniProt Q92541)	-0.0763	-0.177
RPS27A_P62979_121_ECPSDECGAGVFMASHFDR (UniProt P62979)	-0.176	-0.142
RSPRY1_Q96DX4_190_LTEILNLNGEVACQDSSHPAK (UniProt Q96DX4)	-0.258	-0.129
RPS12_P25398_106_VVGCSCVVVK (UniProt P25398)	0.0604	0.111

In another format: results already given.
Target,probe-labelled cysteine peptide fold change (10 µM),probe-labelled cysteine peptide fold change (50 µM)
RPUSD2_Q8IZ73_246_LLAENEDVVVVDKPSSIPVHPCGR (UniProt Q8IZ73),-0.089,-0.225
RRP7A_Q9Y3A4_8_CAARDPEDR (UniProt Q9Y3A4),-0.00933,-0.0648
RUSC1_Q9BVN2_532_LSPDVGHLVLTTLCPALHALVADGLK (UniProt Q9BVN2),-0.131,-0.173

More records.

Target	probe-labelled cysteine peptide fold change (10 µM)	probe-labelled cysteine peptide fold change (50 µM)
RUBCNL_Q9H714_40_LLNTDHPPCQLDIR (UniProt Q9H714)	0.0816	0.119
RREB1_Q92766_1251_ITCPHCPR (UniProt Q92766)	-0.0787	0.0348
RPS3A_P61247_139_LFCVGFTK (UniProt P61247)	0.00349	0.037
SACS_Q9NZJ4_1285_FCPLAQAVIKPIHDLDLQPYLHNVPK (UniProt Q9NZJ4)	-0.14	-0.0635
RPUSD2_Q8IZ73_502_AVETDVMNQETDPLCAECR (UniProt Q8IZ73)	-0.169	-0.12
RRP1B_Q14684_583_AGPGSLELCGLPSQK (UniProt Q14684)	-0.0951	-0.112
RRM2_P31350_270_DEGLHCDFACLMFK (UniProt P31350)	0.141	0.14
RTCB_Q9Y3I0_255_GQVCVMIHSGSR (UniProt Q9Y3I0)	0.00368	0.0139
SACM1L_Q9NTJ5_199_FALPVLHGFITMHSCSINGK (UniProt Q9NTJ5)	-0.0118	0.173
RRBP1_Q9P2E9_933_CEELSGLHGQLQEAR (UniProt Q9P2E9)	0.402	0.111
RUFY1_Q96T51_544_IGALQLQLSQLHEQCSSLEK (UniProt Q96T51)	0.0546	0.0817
RPS6_P62753_12_KLNISFPATGCQK (UniProt P62753)	-0.275	-0.353
RPS28_P62857_27_TGSQGQCTQVRVEFMDDTSR (UniProt P62857)	-0.718	-0.281
RUBCNL_Q9H714_437_DLVVAAQNFFCAGCGTPVEPK (UniProt Q9H714)	0.0917	0.00198
SAE1_Q9UBE0_303_YCFSEMAPVCAVVGGILAQEIVK (UniProt Q9UBE0)	-0.0632	-0.0869
RPS12_P25398_50_RQAHLCVLASNCDEPMYVK (UniProt P25398)	-0.234	-0.00785
RTCA_O00442_28_VSTALSCLLGLPLR (UniProt O00442)	-0.0917	-0.0865
RRP1B_Q14684_155_EVLCPESQSPNGVR (UniProt Q14684)	-0.371	-0.138
RXRA_P19793_404_VYASLEAYCK (UniProt P19793)	-0.202	-0.0607
RPS5_P46782_155_VNQAIWLLCTGAR (UniProt P46782)	0.00589	0.118
RPS21_P63220_56_TYAICGAIR (UniProt P63220)	-0.0961	-0.0375
RYBP_Q8N488_44_CSICDVR (UniProt Q8N488)	0.117	0.0715

Target	probe-labelled cysteine peptide fold change (10 µM)	probe-labelled cysteine peptide fold change (50 µM)
RSBN1L_Q6PCB5_595_AVHCGEWPDQPR (UniProt Q6PCB5)	0.121	-0.0484
RPP40_O75818_298_ICLLLEHLCHYFDEPK (UniProt O75818)	0.179	0.234
RRP12_Q5JTH9_799_VLEEVCASPQGPGALFVQSHLEDLKK (UniProt Q5JTH9)	-0.0461	0.00477
RUBCNL_Q9H714_641_QCFQSSECPR (UniProt Q9H714)	0.144	0.15
SACS_Q9NZJ4_1846_LGLVPCGAVGVQLSEIQDQK (UniProt Q9NZJ4)	-0.0692	-0.0784
RPS11_P62280_131_DVQIGDIVTVGECRPLSK (UniProt P62280)	-0.0822	-0.067
RRM1_P23921_444_DEVAVCNLASLALNMYVTSEHTYDFKK (UniProt P23921)	0.0269	0.065
RRM1_P23921_254_SAGGIGVAVSCIR (UniProt P23921)	0.174	0.188
SAMD9_Q5K651_420_CHPDQTK (UniProt Q5K651)	-0.031	0.073
RTCB_Q9Y3I0_485_NVTDVVNTCHDAGISK (UniProt Q9Y3I0)	-0.0281	-0.0777
RPRD1B_Q9NQG5_234_TVDEACLLLAEYNGR (UniProt Q9NQG5)	-0.0354	0.0947
SAAL1_Q96ER3_248_LVPCILEAAK (UniProt Q96ER3)	-0.184	-0.0454
RPS5_P46782_155_RVNQAIWLLCTGAR (UniProt P46782)	-0.267	-0.158
RUFY1_Q96T51_351_ICSLQEEQQQLR (UniProt Q96T51)	0.0896	0.00996
RRP15_Q9Y3B9_146_RLEWEMMCR (UniProt Q9Y3B9)	-0.136	-0.197
RREB1_Q92766_1395_LACDTCGK (UniProt Q92766)	0.131	0.0807
RPS12_P25398_108_KVVGCSCVVVK (UniProt P25398)	-0.2	-0.106
RPS12_P25398_108_VVGCSCVVVK (UniProt P25398)	0.109	0.0354
SAE1_Q9UBE0_134_KPESFFTQFDAVCLTCCSR (UniProt Q9UBE0)	0.107	0.0728
RPS2_P15880_229_GCTATLGNFAK (UniProt P15880)	-0.0351	-0.19
